Laboratory results reported in patent US20220305015A1, “COMBINATORIAL THERAPY TARGETING PARP1 AND RTK” (Board of Regents, The University of Texas System, priority 2019, published 2022).
These are yes or no findings as the source states them, for the method shown. Binding seen in cells or lysates may run through a third protein. Some results given as binding are weak or reduced against the parent protein; the word gives no strength.

The chains behind the UniProt entries cited, without tags or fusion partners. Residues count along the entry.
UniProt P50750: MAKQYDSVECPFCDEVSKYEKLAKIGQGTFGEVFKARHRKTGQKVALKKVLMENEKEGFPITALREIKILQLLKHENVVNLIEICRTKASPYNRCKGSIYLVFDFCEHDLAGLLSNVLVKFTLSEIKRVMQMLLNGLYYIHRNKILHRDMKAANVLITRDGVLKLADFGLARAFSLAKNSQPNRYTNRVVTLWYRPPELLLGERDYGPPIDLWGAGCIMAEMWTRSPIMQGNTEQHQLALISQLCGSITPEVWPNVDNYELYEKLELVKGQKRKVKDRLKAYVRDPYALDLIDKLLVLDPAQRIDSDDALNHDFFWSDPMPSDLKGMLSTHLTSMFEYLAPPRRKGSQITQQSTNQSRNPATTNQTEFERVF
UniProt P09874, residues 2-1014: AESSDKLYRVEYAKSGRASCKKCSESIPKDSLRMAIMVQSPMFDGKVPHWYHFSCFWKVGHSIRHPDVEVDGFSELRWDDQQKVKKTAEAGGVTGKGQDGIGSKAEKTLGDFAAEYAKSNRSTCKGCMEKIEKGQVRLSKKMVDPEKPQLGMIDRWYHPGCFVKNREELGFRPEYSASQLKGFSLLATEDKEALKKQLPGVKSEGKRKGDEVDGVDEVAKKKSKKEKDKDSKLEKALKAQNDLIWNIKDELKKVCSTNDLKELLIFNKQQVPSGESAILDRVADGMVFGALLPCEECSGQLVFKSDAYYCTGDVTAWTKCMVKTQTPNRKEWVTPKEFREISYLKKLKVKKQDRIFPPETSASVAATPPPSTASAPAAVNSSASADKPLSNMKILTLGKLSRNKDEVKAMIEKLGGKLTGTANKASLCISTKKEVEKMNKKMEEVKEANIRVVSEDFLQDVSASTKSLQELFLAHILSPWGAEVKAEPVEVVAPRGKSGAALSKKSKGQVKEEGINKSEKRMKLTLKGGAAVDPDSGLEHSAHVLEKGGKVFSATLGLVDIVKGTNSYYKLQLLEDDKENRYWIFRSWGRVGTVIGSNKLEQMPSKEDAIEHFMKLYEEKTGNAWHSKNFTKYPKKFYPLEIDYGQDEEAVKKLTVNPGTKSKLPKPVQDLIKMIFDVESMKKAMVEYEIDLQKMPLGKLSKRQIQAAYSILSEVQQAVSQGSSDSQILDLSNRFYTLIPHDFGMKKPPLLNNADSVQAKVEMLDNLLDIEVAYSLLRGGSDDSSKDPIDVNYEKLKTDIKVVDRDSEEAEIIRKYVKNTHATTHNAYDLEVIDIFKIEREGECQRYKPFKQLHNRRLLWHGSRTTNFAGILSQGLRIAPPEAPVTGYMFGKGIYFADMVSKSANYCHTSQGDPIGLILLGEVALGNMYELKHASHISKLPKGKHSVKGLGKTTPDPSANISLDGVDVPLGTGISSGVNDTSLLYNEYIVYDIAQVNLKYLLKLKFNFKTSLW
UniProt Q9UM73, residues 19-1620: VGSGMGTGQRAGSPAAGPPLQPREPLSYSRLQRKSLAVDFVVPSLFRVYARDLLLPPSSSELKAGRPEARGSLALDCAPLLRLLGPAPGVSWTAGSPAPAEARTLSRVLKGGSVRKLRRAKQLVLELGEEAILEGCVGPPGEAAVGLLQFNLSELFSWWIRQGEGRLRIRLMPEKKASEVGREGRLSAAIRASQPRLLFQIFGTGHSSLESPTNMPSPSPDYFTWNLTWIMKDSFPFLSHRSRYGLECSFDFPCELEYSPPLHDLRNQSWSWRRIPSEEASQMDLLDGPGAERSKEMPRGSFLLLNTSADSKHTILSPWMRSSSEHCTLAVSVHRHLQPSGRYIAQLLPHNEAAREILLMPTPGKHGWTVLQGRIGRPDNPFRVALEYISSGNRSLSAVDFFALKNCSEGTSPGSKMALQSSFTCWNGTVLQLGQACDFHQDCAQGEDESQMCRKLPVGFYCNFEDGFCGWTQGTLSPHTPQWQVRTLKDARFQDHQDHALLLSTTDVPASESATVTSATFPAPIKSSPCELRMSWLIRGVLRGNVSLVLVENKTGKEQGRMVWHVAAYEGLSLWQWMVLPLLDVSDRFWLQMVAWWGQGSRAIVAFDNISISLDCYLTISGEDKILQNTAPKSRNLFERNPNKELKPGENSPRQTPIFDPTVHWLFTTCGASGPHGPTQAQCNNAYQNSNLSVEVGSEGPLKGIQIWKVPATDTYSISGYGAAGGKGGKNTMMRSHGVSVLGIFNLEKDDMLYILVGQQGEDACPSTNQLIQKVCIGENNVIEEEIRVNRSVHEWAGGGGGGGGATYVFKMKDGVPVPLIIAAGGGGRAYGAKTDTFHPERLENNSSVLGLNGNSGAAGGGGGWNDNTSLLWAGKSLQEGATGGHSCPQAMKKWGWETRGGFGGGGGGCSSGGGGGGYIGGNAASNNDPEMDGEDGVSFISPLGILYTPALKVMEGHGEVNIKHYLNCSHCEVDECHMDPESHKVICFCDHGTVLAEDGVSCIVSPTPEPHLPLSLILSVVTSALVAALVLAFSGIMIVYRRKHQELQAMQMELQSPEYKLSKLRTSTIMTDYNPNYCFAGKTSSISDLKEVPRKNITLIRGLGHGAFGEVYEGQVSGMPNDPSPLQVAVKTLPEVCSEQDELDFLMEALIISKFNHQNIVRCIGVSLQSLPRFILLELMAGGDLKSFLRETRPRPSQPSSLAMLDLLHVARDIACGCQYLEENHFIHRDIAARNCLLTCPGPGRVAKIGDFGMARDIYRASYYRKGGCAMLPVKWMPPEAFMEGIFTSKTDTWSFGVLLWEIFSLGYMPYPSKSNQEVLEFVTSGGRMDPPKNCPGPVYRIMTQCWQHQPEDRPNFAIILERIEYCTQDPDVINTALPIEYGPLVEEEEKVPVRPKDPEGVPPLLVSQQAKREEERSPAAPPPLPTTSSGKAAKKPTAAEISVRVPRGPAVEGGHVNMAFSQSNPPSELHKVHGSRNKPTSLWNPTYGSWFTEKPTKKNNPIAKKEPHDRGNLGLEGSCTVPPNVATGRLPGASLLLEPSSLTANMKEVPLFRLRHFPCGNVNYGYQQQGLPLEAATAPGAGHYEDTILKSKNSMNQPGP
UniProt P22607, residues 23-806: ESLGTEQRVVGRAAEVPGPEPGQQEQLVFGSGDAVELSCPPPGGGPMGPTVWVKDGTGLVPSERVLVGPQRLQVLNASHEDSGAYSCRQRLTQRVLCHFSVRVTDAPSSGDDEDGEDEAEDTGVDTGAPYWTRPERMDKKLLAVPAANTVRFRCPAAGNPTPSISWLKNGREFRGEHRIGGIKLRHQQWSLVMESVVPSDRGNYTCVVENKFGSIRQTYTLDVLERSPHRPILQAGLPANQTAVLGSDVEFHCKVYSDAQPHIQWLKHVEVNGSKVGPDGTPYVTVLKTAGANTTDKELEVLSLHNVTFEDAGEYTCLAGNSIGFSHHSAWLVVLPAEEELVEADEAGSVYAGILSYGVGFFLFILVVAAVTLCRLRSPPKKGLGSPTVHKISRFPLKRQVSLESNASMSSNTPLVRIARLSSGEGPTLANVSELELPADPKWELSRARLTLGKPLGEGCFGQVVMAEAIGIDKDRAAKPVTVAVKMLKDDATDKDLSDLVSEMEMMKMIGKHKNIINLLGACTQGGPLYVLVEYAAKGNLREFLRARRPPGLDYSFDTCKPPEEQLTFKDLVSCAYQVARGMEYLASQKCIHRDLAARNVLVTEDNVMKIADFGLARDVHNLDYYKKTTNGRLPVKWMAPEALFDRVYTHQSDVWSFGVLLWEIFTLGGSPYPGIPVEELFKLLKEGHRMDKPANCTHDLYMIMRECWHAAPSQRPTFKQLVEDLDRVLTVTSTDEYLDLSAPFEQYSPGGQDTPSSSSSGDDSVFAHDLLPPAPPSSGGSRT

Experiments:
FLAG-tagged CDK9 = FLAG-tagged CDK9 (UniProt P50750); test: co-immunoprecipitation from cells co-expressing ALK and FLAG-tagged CDK9, Western blot (FIG. 15A)
[1] = target: Poly(ADP-ribose) polymerase 1 (PARP1) (UniProt P09874); test: co-immunoprecipitation, figure legend of FIGS. 10A-10D
[2] = target: Poly(ADP-ribose) polymerase 1 (PARP1) (UniProt P09874); test: proximity ligation assay in fixed BR cells (FIG. 3A); signal lower with talazoparib plus PD173074
[3] = target: Poly(ADP-ribose) polymerase 1 (PARP1) (UniProt P09874); test: co-immunoprecipitation: PARP1 IP from SUM149 and BR#09 cell lysates, Western blot for FGFR3 (FIG. 10A)

binding (FLAG-tagged CDK9)	binding [1]	binding [2]	binding [3]	Substance
binds				Anaplastic lymphoma kinase (ALK) (from UniProt Q9UM73 19-1620) (receptor)
	binds	binds	binds	Fibroblast growth factor receptor 3 (FGFR3) (from UniProt P22607 23-806)
